Laboratory results as given in the supplement of paper PMC10849652.
This is one part of the list.

Amino acid sequences for entries named in this document (tags omitted). A change or cut given only in a name is not applied to a line headed by its entry.
UniProt Q969X5: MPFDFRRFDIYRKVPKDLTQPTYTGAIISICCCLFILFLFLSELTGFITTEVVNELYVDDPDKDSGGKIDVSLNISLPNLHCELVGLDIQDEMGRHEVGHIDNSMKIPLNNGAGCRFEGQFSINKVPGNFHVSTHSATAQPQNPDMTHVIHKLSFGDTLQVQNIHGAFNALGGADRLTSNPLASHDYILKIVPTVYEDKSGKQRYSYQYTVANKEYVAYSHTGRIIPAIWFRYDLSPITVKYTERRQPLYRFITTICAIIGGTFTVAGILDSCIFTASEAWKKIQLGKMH
UniProt P41091, whole entry, looked up: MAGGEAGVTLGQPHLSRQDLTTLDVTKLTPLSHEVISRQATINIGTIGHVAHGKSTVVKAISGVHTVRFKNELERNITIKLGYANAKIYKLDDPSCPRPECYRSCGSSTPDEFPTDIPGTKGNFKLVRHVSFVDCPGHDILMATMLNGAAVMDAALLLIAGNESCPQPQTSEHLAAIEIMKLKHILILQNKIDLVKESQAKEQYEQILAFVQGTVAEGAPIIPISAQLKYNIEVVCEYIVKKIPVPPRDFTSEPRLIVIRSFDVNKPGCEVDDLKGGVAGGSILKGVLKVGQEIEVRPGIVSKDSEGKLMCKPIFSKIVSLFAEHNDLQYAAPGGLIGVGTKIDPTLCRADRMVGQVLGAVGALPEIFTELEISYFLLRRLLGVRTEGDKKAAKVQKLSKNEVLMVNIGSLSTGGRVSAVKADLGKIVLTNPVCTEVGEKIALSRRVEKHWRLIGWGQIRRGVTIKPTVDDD
UniProt Q15717, whole entry, looked up: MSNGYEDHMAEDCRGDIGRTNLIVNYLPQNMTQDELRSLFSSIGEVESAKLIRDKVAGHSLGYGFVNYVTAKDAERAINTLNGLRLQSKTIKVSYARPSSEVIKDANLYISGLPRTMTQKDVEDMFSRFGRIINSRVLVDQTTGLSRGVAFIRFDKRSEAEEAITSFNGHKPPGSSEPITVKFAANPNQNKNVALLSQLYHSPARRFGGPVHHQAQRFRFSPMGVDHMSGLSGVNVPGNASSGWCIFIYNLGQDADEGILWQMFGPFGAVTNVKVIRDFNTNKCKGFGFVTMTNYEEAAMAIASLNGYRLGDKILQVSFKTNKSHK
UniProt P42566: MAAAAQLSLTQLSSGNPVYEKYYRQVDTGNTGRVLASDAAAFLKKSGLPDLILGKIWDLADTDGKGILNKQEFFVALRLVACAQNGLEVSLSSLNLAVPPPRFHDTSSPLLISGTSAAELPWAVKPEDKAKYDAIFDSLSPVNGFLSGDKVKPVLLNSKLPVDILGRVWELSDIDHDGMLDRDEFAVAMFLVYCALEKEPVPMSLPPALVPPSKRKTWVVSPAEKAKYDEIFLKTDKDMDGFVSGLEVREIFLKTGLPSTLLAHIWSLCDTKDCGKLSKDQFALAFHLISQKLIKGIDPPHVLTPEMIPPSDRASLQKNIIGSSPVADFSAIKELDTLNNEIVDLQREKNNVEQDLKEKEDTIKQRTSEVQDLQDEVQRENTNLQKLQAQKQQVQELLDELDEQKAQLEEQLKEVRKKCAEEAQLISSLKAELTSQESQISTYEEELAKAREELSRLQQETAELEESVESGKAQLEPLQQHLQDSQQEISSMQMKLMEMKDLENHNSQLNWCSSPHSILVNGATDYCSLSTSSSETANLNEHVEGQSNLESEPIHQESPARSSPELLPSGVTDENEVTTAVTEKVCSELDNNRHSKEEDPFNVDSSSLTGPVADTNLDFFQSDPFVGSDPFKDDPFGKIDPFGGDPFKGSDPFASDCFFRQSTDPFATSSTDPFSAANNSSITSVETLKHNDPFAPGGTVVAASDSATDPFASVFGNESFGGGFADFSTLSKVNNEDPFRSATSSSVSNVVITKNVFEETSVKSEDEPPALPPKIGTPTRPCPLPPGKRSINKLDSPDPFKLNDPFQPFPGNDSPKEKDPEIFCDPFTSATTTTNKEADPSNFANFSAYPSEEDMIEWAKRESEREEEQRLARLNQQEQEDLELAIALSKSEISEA
UniProt Q32P44: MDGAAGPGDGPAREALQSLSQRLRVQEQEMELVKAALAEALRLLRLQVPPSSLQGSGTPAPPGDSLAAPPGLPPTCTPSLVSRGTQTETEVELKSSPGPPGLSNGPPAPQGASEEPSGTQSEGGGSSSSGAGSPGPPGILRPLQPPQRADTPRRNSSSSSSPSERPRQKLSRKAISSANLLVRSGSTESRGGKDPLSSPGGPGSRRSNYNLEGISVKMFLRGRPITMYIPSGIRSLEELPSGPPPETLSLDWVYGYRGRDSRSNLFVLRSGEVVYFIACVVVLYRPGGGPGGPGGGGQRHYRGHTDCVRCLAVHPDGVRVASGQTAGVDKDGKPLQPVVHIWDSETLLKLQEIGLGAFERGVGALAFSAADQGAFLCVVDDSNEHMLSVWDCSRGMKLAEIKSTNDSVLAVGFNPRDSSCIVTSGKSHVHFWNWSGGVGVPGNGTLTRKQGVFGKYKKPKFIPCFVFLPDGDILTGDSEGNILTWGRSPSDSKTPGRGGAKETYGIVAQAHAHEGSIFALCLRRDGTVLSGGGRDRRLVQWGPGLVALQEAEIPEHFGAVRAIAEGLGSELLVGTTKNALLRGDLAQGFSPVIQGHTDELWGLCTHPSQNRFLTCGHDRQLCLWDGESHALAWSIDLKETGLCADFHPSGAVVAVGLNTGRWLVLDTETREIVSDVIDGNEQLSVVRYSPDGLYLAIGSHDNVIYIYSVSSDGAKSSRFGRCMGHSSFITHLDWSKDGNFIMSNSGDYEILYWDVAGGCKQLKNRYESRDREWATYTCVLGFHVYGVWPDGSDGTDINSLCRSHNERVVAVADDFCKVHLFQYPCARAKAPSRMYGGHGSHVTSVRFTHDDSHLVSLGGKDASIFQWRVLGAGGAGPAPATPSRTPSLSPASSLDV
UniProt O75356: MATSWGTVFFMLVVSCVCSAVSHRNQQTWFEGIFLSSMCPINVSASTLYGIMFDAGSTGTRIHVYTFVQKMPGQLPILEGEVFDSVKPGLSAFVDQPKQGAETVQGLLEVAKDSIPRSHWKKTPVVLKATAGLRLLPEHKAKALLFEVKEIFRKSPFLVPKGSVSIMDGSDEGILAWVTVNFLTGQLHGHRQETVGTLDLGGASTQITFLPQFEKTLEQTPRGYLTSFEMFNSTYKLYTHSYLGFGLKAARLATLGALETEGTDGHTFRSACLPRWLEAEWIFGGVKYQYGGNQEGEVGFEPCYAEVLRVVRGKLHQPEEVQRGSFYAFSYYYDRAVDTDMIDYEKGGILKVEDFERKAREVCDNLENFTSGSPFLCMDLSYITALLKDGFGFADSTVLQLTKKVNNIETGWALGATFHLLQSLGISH
UniProt P55884, whole entry, looked up: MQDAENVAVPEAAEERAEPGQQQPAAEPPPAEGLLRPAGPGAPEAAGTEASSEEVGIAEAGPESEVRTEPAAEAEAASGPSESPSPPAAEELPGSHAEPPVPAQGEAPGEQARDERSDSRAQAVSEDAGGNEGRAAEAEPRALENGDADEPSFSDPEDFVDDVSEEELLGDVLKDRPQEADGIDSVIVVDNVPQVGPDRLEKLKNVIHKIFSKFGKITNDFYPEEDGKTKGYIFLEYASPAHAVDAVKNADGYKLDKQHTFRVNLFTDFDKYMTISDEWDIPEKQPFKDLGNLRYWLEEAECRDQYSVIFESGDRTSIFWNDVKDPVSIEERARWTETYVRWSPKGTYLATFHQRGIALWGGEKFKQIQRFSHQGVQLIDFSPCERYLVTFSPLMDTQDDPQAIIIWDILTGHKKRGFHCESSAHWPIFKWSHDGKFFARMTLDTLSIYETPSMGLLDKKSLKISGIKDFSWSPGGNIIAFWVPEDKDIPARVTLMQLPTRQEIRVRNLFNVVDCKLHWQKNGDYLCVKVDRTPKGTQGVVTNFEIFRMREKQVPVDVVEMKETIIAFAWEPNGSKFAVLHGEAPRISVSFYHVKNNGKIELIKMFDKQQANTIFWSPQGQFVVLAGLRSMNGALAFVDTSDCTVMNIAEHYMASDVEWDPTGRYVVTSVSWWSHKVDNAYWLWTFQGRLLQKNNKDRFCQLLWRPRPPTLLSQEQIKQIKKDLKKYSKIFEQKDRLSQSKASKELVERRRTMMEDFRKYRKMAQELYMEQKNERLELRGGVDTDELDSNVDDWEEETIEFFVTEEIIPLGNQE
UniProt Q6P179: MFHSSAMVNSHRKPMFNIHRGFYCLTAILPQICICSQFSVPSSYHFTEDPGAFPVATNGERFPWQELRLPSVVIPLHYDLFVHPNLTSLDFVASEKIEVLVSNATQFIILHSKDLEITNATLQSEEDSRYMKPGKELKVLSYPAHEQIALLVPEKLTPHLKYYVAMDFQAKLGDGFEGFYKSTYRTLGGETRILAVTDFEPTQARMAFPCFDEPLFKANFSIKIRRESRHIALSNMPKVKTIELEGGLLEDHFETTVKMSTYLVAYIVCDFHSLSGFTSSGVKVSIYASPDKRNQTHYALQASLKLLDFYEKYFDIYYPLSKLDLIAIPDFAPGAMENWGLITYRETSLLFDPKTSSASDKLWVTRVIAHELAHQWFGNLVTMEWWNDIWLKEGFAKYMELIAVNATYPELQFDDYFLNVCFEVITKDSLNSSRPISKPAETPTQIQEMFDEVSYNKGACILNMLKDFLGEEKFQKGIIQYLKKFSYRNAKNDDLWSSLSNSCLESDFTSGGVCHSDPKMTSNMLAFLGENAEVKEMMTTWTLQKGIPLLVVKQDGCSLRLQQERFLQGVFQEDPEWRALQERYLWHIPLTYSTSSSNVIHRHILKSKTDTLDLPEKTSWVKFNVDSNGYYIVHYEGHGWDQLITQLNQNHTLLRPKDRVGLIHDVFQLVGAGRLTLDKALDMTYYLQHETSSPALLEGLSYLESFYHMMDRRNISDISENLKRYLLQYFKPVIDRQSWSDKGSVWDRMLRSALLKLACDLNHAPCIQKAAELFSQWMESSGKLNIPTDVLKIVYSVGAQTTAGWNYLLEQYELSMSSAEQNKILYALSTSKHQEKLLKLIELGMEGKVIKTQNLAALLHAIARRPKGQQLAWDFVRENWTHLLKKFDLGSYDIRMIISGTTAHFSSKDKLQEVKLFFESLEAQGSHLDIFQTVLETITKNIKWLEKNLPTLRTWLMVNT
UniProt Q5J8M3, whole entry, looked up: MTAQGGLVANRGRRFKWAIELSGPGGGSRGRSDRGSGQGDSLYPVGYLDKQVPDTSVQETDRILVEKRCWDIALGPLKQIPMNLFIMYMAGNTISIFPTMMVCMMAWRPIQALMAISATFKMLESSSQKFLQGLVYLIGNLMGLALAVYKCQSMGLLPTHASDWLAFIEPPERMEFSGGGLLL
UniProt P84090, whole entry, looked up: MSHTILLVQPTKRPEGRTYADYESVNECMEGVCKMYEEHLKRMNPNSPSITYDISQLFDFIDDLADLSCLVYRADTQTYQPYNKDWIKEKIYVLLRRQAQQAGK
UniProt Q9BV81: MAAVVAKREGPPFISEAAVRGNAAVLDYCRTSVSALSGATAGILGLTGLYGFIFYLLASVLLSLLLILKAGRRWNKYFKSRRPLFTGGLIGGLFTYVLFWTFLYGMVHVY
UniProt O43768: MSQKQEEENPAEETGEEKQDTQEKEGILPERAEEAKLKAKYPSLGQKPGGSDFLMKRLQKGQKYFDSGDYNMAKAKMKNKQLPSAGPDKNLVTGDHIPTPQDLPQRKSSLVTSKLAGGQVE
UniProt P06733, whole entry, looked up: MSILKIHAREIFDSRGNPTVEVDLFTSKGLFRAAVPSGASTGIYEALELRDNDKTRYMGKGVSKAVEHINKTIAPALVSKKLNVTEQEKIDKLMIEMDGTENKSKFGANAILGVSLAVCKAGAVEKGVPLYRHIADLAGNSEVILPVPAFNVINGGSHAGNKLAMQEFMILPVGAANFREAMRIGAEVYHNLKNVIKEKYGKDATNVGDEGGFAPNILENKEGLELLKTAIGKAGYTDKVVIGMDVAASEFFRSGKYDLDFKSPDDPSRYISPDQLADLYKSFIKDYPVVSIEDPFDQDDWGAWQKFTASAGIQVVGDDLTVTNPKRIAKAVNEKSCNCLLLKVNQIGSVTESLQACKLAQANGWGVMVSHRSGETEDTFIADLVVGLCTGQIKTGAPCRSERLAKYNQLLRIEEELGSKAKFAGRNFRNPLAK
UniProt Q53HC9: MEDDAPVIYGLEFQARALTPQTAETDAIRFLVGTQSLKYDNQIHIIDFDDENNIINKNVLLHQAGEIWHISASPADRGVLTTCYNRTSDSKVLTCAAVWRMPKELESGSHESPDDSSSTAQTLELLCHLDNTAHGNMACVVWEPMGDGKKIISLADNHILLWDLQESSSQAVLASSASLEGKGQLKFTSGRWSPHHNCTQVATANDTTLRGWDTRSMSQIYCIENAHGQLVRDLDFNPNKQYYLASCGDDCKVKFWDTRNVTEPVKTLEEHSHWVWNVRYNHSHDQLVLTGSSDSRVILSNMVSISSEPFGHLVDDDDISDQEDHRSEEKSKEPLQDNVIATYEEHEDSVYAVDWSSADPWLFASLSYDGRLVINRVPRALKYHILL

Experiments:
Test in all cases: log2 fold change, soluble protein after heating vs DMSO (PISA); higher = thermal stabilisation; K562 lysate, 10 uM; active = over 0.2 and 3.5 SD of the protein, either way, in both replicates (recomputed)
[1] = compound: C1=CC=C(C=C1)[C@H](COC2=CC3=C(C=C2)NC(=O)N3)NC(=O)C4=CC=CN(C4=O)CC5=CC(=C(C=C5)F)F
In short: (§1)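 K562 pellets were dounce-homogenised in PBS pH 7.4 with 1 mM MgCl2, and the crude extract at 1 mg/mL protein was treated with 10 μM compound for 30 min. Aliquots were heated for 3 min across 48°C-58°C, pooled, and brought to 0.5% NP-40 at 4°C; soluble protein was the supernatant after 21,000xg for 90 min. Soluble protein was quantified by TMTpro 16plex LC-MS/MS with channel sums equalised, and reported as log2 fold change in thermal stability against DMSO controls, with values from duplicates.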

[2] = compound: CC1=C(SC2=C1C(=N[C@H](C3=NN=C(N32)C)CC(=O)N)C4=CC=C(C=C4)Cl)C
In short: as §1

[3] = compound: CC1=C2C(=CC=C1)N=C(N(C2=O)C3=CC=CC=C3C)CN4C=NC5=C(N=CN=C54)N
In short: as §1

[4] = compound: Cc1sc2c(c1C)C(c1ccc(Cl)cc1)=N[C@@H](CC(=O)OC(C)(C)C)c1nnc(C)n1-2
In short: as §1

[5] = compound: c1ccc([C@@H]2C[C@H]2NC2CCNCC2)cc1
In short: as §1

Measured: log2 fold change

ERGIC1 (UniProt Q969X5)
inactive: [1] 0.063 | [2] 0.025 | [3] 0.035 | [4] 0.063 | [5] 0.011

EIF2S3 (UniProt P41091)
inactive: [1] -0.005 | [2] 0.034 | [3] -0.009 | [4] 0.029 | [5] 0.089

ELAVL1 isoform 2 (UniProt Q15717)
inactive: [1] -0.038 | [2] 0 | [3] -0.017 | [4] 0.066 | [5] 0.052

EPS15 (UniProt P42566)
inactive: [1] 0.025 | [2] 0.007 | [3] 0 | [4] 0.004 | [5] 0.011

EML3 (UniProt Q32P44)
inactive: [1] 0.007 | [2] -0.037 | [3] -0.026 | [4] -0.025 | [5] 0.001

ERCC1 (UniProt P07992)
inactive: [1] 0.063 | [2] 0.001 | [3] 0.047 | [4] -0.017 | [5] -0.087

ENTPD5 (UniProt O75356)
inactive: [1] -0.094 | [2] 0.116 | [3] 0.022 | [4] -0.007 | [5] -0.068

EIF3B isoform 2 (UniProt P55884)
inactive: [1] 0.007 | [2] 0 | [3] 0.009 | [4] -0.002 | [5] 0.014

ERAP2 (UniProt Q6P179)
inactive: [1] -0.097 | [2] 0.076

EPC2 (UniProt Q52LR7)
inactive: [1] -0.152 | [2] 0.087 | [3] 0.026 | [4] 0.111

EPS8L1 (UniProt Q8TE68)
inactive: [1] -0.003 | [2] 0.073 | [3] 0.098 | [4] 0.011 | [5] -0.074

EIF4G2 (UniProt P78344)
inactive: [1] -0.105 | [2] -0.009 | [3] 0.025 | [4] 0.041 | [5] 0.041

EMC4 (UniProt Q5J8M3)
inactive: [1] -0.095 | [2] -0.062 | [3] -0.023 | [4] -0.063 | [5] 0.044

EIF3G (UniProt O75821)
inactive: [1] -0.024 | [2] 0.013 | [3] 0.015 | [4] -0.04 | [5] 0.017

EIF2AK4 (UniProt Q9P2K8)
inactive: [1] -0.033 | [2] 0.006 | [3] 0.019 | [4] 0.014 | [5] -0.019

ERH (UniProt P84090)
inactive: [1] 0.061 | [2] 0.02 | [3] -0.094 | [4] 0.001 | [5] 0.034

EMC6 (UniProt Q9BV81)
inactive: [1] 0.008 | [2] 0 | [3] 0.017 | [4] -0.013 | [5] -0.037

EPS15L1 isoform 2 (UniProt Q9UBC2)
inactive: [1] 0.021 | [2] 0.001 | [3] -0.007 | [4] -0.003 | [5] 0.018

ENSA isoform 3 (UniProt O43768)
inactive: [1] 0.037 | [2] -0.027 | [3] -0.024 | [4] -0.008 | [5] 0.02

ENO1 isoform 2 (UniProt P06733)
inactive: [1] 0.068 | [2] -0.145 | [3] 0.033 | [4] -0.062 | [5] -0.143

EIPR1 (UniProt Q53HC9)
inactive: [1] 0.021 | [2] 0.009 | [3] 0.03 | [4] -0.04 | [5] -0.028

ERCC3 (UniProt P19447)
inactive: [1] 0.014 | [2] -0.035 | [3] -0.001 | [4] -0.004 | [5] 0.037

EIF4A2 isoform 2 (UniProt Q14240)
inactive: [1] -0.009 | [2] -0.002 | [3] -0.021 | [4] 0 | [5] -0.017

EIF4E2 (UniProt O60573)
inactive: [1] 0.068 | [2] -0.012 | [3] 0.052 | [4] -0.069 | [5] 0.033

ENPP3 (UniProt O14638)
inactive: [1] 0.079 | [2] 0.034 | [3] 0.006 | [4] -0.047 | [5] -0.036

EPB41, A0A2R8Y783
inactive: [1] -0.056 | [2] -0.031 | [3] 0.142 | [4] -0.131 | [5] 0.033

2 consecutive records from above, quoted:
EIF4E2 (UniProt O60573)
inactive: [1] 0.068 | [2] -0.012 | [3] 0.052 | [4] -0.069 | [5] 0.033

ENPP3 (UniProt O14638)
inactive: [1] 0.079 | [2] 0.034 | [3] 0.006 | [4] -0.047 | [5] -0.036

Later entries.

ERCC4 (UniProt Q92889)
inactive: [1] -0.038 | [2] 0.036 | [3] 0.043 | [4] -0.008
active: [5] -0.305
